The whole screen tested about 390,000 compounds, of which about 60 (0.02%) were called active. This list was built around the results that the source calls inconclusive (neither active nor inactive); the mix of calls is not that of the screen. Cut-off read from the data, not from the text of the source: active = activity change below about -50%; inconclusive = between about -30% and that limit; inactive = weaker than that.
molecular target: Mucolipin-1 (Homo sapiens) (UniProt Q9GZU1); assay: qHTS for Inhibitors of the Human Mucolipin Transient Receptor Potential 1 (TRPML1); details: TRPML1-inducible cells, Ca2+ dye fluorescence, FDSS; stronger effect = lower value; inhibition of EC80 agonist-evoked calcium signal;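 note: stimulus is agonist 54-4 at its EC80 concentration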
Procedure, shortened: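 TRPML1-DL cells, Tet-induced overnight (~16 h, 37 °C) at 1,500 cells/well, were loaded with Ca8 no-wash dye plus quencher for 45-90 min at room temperature. Compounds were pinned during FDSS kinetic reading; agonist 54-4 at EC80 (4 uM final) then added.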
% is set by controls: 0 for no effect and ±100 for the full control effect.

Chains of the proteins cited; added tags and fusions are not shown.
UniProt Q9GZU1, whole entry, looked up: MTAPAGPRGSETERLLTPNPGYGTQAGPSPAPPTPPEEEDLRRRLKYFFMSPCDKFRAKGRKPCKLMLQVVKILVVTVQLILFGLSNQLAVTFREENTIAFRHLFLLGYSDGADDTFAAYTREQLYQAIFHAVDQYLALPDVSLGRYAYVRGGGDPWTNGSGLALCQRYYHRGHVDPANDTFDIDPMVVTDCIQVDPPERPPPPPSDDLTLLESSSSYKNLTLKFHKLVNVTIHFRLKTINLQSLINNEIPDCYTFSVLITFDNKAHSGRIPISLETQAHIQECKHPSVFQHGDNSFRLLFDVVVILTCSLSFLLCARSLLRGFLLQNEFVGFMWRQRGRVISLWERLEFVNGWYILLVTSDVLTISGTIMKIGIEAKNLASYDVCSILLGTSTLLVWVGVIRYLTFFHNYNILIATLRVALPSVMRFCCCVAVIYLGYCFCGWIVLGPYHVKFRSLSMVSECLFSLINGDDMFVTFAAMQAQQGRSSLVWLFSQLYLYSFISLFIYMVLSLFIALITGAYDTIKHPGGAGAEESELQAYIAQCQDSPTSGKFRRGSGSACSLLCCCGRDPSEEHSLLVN

Row | SMILES | activity change, negative = inhibition
1 | N#Cc1ccsc1NC(=O)CCN1CCN(C(c2ccccc2)c2ccccc2)CC1 | inconclusive: -38.2%
2 | COc1cc(OC)c(NC(=O)C(C)n2nc(-c3ccc(C)c(C)c3)ccc2=O)cc1Cl (stereo not given) | inactive: -9.98%
3 | CN(C)CCCNc1nc(N)c([N+](=O)[O-])c(NC2CCCCC2)n1 | inactive: 16.5%
4 | CC1(C)CC(=O)C(C(c2cc([N+](=O)[O-])ccc2Cl)C2C(=O)CC(C)(C)CC2=O)C(=O)C1 | inactive: 9.61%
5 | CCOc1ccc(OCC(=O)NCCS(=O)(=O)N2CCN(c3ccc(OC)cc3)CC2)cc1 | inactive: 7.67%
6 | COc1ccccc1N1CCN(CCCN2C(=O)C3CCCN3C2=O)CC1 (stereo not given) | inactive: -28.2%
7 | CCOC(=O)c1cc(-c2ccc(F)cc2)n(CCC(=O)NCc2ccc(C)cc2)c1C | inactive: 18.6%
8 | CCCCc1nn2c(C)c(-c3ccc(OCC)cc3)nc2s1 | inactive: 3.7%
9 | Cc1cccc(C)c1OC(=O)CCN1C(=O)C2C3C=CC(C4CC34)C2C1=O (stereo not given) | inactive: 16.9%
10 | Cc1ccccc1-c1nnc(SCC(=O)Nc2c(C)n(C)n(-c3ccccc3)c2=O)o1 | inconclusive: -30.1%
11 | CC(=O)NCCC(=O)Nc1cc(S(=O)(=O)N2CCOCC2)ccc1Oc1ccccc1 | inactive: 18.4%
12 | COCCCNC(=O)Cn1cc(/C=C(\C#N)C(=O)N2CCN(c3ccccc3)CC2)c2ccccc21 | inconclusive: -30.1%
13 | CC(C)(C)NC(=O)CN(Cc1ccccc1)S(=O)(=O)c1ccccc1 | inconclusive: -33.1%
14 | CCOC(=O)c1ccc(-n2c(CN(CC)CC)nc3ccc([N+](=O)[O-])cc3c2=O)cc1 | inconclusive: -36.3%
15 | COc1ccc(-c2nc3c4ccccc4ccn3c2CN2CCCCC2)cc1 | inconclusive: -31.3%
16 | COc1ccc(-c2csc(-c3nc(-c4ccc(Br)s4)cs3)n2)cc1F | inconclusive: -37.1%
17 | CCN(c1cc(C)cc(C)c1)S(=O)(=O)c1nnc(NC(=O)c2cccc(F)c2)s1 | inactive: -28.8%
18 | CCOC(=O)c1c2c(n(Cc3ccccc3)c1C)C(=O)C(=O)c1ccccc1-2 | inconclusive: -35%
19 | Cc1cccn2cc(CCNC(=O)Cc3cccs3)nc12 | inconclusive: -34.8%
20 | CC(=O)Nc1c(S(=O)(=O)c2ccccc2)c2nc3ccccc3nc2n1Cc1ccccc1 | inconclusive: -36%
21 | CCN(C(=O)c1cc2c(=O)n3cccc(C)c3nc2s1)C1CCCCC1 | inconclusive: -31.3%
22 | COc1cccc(CN2CCN(C3CCN(c4ccccc4F)CC3)CC2CCO)c1 (stereo not given) | inactive: -10.7%
23 | Cc1ccc(NC(=O)CN2C(=O)CSc3ccc(S(=O)(=O)N4CCCCC4)cc32)cc1 | inconclusive: -46.6%
24 | COc1cccc(NC(=O)CSc2ncc3c(n2)-c2ccc(Cl)cc2N(C)S3(=O)=O)c1 | inconclusive: -37.8%
25 | Clc1ccc(Nc2nc3cccnc3s2)cc1 | inactive: 1.57%
26 | COc1ccc(/C=N/NC(=O)c2cc(O)c(O)c(O)c2)cc1Cn1cc([N+](=O)[O-])cn1 | inconclusive: -33.9%
27 | COc1ccc(N)cc1-n1c(C)ccc1C | inconclusive: -37.5%
28 | COc1ccc(-c2csc(NCCn3c(C)nc4cc(C(F)(F)F)ccc43)n2)cc1 | inactive: 0.528%

Row | SMILES | activity change, negative = inhibition
29 | CC1(C)CC(=O)C2=C(C1)OC(=O)CC2c1cccs1 (stereo not given) | inconclusive: -39.9%
30 | COc1ccc(CC(=O)Nc2sc3c(c2C(=O)Nc2ccc(C)cc2)CCCCC3)cc1 | inconclusive: -38%
31 | CC(C)Sc1nnc(NC(=O)c2ccc3c(c2)OCO3)s1 | inactive: 3.18%
32 | Cc1oc2ncnc(N3CCCCC3)c2c1C(=O)Nc1cccc(F)c1 | inconclusive: -32%
33 | CS(=O)(=O)N1CCN(CC2CC3C=CC2C3)CC1 (stereo not given) | inactive: -6.12%
34 | OC(CN1CCN(C(c2ccccc2)c2ccccc2)CC1)c1ccc(Br)cc1 (stereo not given) | inactive: -14.6%
35 | Nc1ccccc1SCC(=O)Nc1ccc2c(c1)OCCO2 | inconclusive: -32.4%
36 | CCOc1nc(Nc2ccc(OC)cc2)nc(N2CCOCC2)n1 | inconclusive: -36.2%
37 | CCOCCSc1nnc2nc(C)cc(C)n12 | inconclusive: -35.2%
38 | CCOC(=O)C1CCCN(S(=O)(=O)c2cc(-c3cc(C)no3)ccc2C)C1 (stereo not given) | inconclusive: -34.1%
39 | COC(=O)C(Cc1ccc(O)cc1)N1Cc2ccccc2C1=O (stereo not given) | inactive: -23.8%
40 | Cc1ccc(SCC2(O)CCN(C(=O)c3ccc(Cl)cc3)CC2)cc1 | inconclusive: -32.5%
41 | N#Cc1ccc(C(=O)Nc2ccc3c(c2)N(C2CCCC2)C(=O)c2ccccc2S3)cc1 | inconclusive: -34.2%
42 | COc1ccc(NC(=O)c2cc(CN3CCCC3)on2)cc1Cl | inconclusive: -30.4%
43 | Nc1ccc(S(=O)(=O)Nc2ncccn2)cc1 | inconclusive: -30.1%
44 | CC(=O)Nc1ccc(CN(C)c2c(C)nc3ccc(C(=O)Nc4ccc(Cl)c(Cl)c4)cn23)cc1 | inconclusive: -38.1%
45 | O=C(NCC(=O)N1CCN(c2ccccc2)CC1)c1ccc(Cl)cc1 | active: -54.5%
46 | CCC1CN(C(=O)N2CCC(C(=O)NCCc3ccc(OC)c(OC)c3)CC2)c2ccccc2O1 (stereo not given) | inconclusive: -34.7%
47 | CCN(CC)S(=O)(=O)c1ccc(-c2nnc3sc4cccc(C)c4n23)cc1 | inconclusive: -32.5%
48 | CCCNC(=O)NC(=O)COc1ccc(-c2ccc(C#N)cc2)cc1 | inconclusive: -38.3%
49 | CC(C)n1c(=O)c2ccccc2n1Cc1cn(-c2ccccc2)nn1 | inconclusive: -33.8%
50 | Cc1ccc2c(C)c(C(=O)NCC3CCOCC3)oc2c1C | inactive: 10.6%
51 | Cn1c(-c2cccc(Br)c2)cnc1NCc1ccccc1O | inactive: -1.01%
52 | CCn1c(=O)c([N+](=O)[O-])c(NCCN(C)C)c2ccccc21 | inconclusive: -37.9%
53 | CCn1c(SCC(=O)Nc2ncc(C(F)(F)F)cc2Cl)nnc1-c1cccc(C)c1 | inconclusive: -30.9%
54 | O=C1CSC(c2cn(-c3ccccc3)nc2-c2cccs2)N1CC1CCCO1 (stereo not given) | inconclusive: -32.6%
55 | Cc1cccc(-c2oc3ccc(-c4ccc5c(c4)OCO5)cc3c2C(=O)OCc2ccc(O)cc2)c1 | inconclusive: -40.5%

Reprinted from the entries so far, 2 compounds:
Row | SMILES | activity change, negative = inhibition
52 | CCn1c(=O)c([N+](=O)[O-])c(NCCN(C)C)c2ccccc21 | inconclusive: -37.9%
53 | CCn1c(SCC(=O)Nc2ncc(C(F)(F)F)cc2Cl)nnc1-c1cccc(C)c1 | inconclusive: -30.9%

Reference: PubChem BioAssay AID624415 (National Center for Advancing Translational Sciences (NCATS), 2012)
